Here are results for 24 compounds from PubChem BioAssay AID252 (DTP/NCI, 2004).

The list is a part of this screen's results and no random one: it gathers tests that were run many times, whatever their T/C, doses with no T/C, and many T/C values between a quarter and a half above the control. Other doses and runs of a compound stand elsewhere. T/C gives the treated animals as a percentage of the vehicle group. Some entries give survivors of the animals treated and no T/C: the source files T/C as zero there, which appears to mark a toxic dose or a test without result, not a measured value. Some survivor counts are full or nearly so, which does not show that the dose was tolerated: the source hardly ever lists a survival T/C far under the control, and the zero likely stands for such cases as well. Counts of survivors are from the toxicity check (mostly the fifth day) where no day follows; animals may have died later. Schedules are NCI's codes, taken here to give the interval after Q, in days (D) or hours (H), and the number of doses after X. Some schedule codes hold Z or #, which are not explained here. Some entries hold several experiments; the results are listed from low to high. For survival time, this PubChem deposit counts one and a half times the control or more as active, and values a quarter to a half above the control carry no call in these data; other NCI protocols may use other cut-offs. Some T/C values carry the count of animals alive at the toxicity check (mostly the fifth day); without a count, all were alive then.

The assay relates to BDF1 mice, intracerebral L1210 leukemia, survival T/C. Briefly: NCI In Vivo Anticancer Drug Screen. Data for tumor model L1210 Leukemia (intracerebral) in B6D2F1 (BDF1) mice. Conditions: higher T/C = longer survival. The gist of the method: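 Tumour was transplanted, animals received compound or vehicle, then survival in each group was measured and treated divided by control.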

[1] abbreviates: T/C endpoint: mean survival time, dose: 450.0 mg/kg/injection, schedule: Q01DX001 (ip), vehicle: carboxymethylcellulose (CMC).
The mark [2] stands for this setting: T/C endpoint: mean survival time, dose: 500.0 mg/kg/injection, schedule: Q01DX Z (ip), vehicle: carboxymethylcellulose (CMC).

Regarding `CNC(=O)N(C)N=O`, the T/C (T/C endpoint: mean survival time, dose: 250.0 mg/kg/injection, schedule: Q01DX001 (ip), vehicle: carboxymethylcellulose (CMC)) was 138 % of control and the T/C under setting [1] was 136 % of control [9 of 10 alive]. For the same compound, the survivor count is, setting by setting: (T/C endpoint: mean survival time, dose: 562.0 mg/kg/injection, schedule: Q01DX001 (ip), vehicle: carboxymethylcellulose (CMC)) 1 of 10; (T/C endpoint: mean survival time, dose: 900.0 mg/kg/injection, schedule: Q01DX001 (ip), vehicle: carboxymethylcellulose (CMC)) 0 of 10; (T/C endpoint: mean survival time, dose: 1800.0 mg/kg/injection, schedule: Q01DX001 (ip), vehicle: carboxymethylcellulose (CMC)) 0 of 10.

As for `O=C1CN=C(c2ccc[nH]2)c2cc(Cl)ccc2N1`, where the note is “T/C endpoint: median survival time, dose: 50.0 mg/kg/injection, schedule: Q01DX009 (ip), vehicle: other”, the survivor count is 5 of 8.

On to `O=NN(CCCl)C(=O)Nc1ccc2ccccc2c1`, for which, under setting [1], the survivor count is 5 of 10.

For the compound `CCOC(=O)C1(NC(=O)N(CCCl)N=O)CCCC1`, the T/C reads like this: (T/C endpoint: mean survival time, dose: 110.0 mg/kg/injection, schedule: Q01DX001 (ip), vehicle: other) 129 % of control; (T/C endpoint: mean survival time, dose: 165.0 mg/kg/injection, schedule: Q01DX001 (ip), vehicle: other) 128 % of control; (T/C endpoint: mean survival time, dose: 168.0 mg/kg/injection, schedule: Q01DX001 (ip), vehicle: other) 143 % of control; (T/C endpoint: mean survival time, dose: 375.0 mg/kg/injection, schedule: Q01DX001 (ip), vehicle: other) 129 % of control. For the same compound, the survivor count by setting is: (T/C endpoint: mean survival time, dose: 247.0 mg/kg/injection, schedule: Q01DX001 (ip), vehicle: other) 5 of 8; (T/C endpoint: mean survival time, dose: 555.0 mg/kg/injection, schedule: Q01DX001 (ip), vehicle: other) 9 of 10.

Take `CC(C)(C)C1CCCC(NC(=O)N(CCCl)N=O)C1` (stereo unspecified): the T/C (T/C endpoint: mean survival time, dose: 82.0 mg/kg/injection, schedule: Q01DX001 (ip), vehicle: saline with Tween-80) was 148 % of control; the T/C (T/C endpoint: mean survival time, dose: 125.0 mg/kg/injection, schedule: Q01DX001 (ip), vehicle: saline with Tween-80) was 144 % of control; the T/C (T/C endpoint: mean survival time, dose: 280.0 mg/kg/injection, schedule: Q01DX001 (ip), vehicle: saline with Tween-80) is 132 % of control.

Consider `O=NN(CCF)C(=O)Nc1c[nH]c(=O)[nH]c1=O`, for which the survivor count (T/C endpoint: mean survival time, dose: 30.0 mg/kg/injection, schedule: Q01DX001 (ip), vehicle: carboxymethylcellulose (CMC)) is listed as 5 of 10.

For `O=NN(CCBr)C(=O)NCCBr`, the T/C (T/C endpoint: mean survival time, dose: 200.0 mg/kg/injection, schedule: Q01DX001 (ip), vehicle: carboxymethylcellulose (CMC)) is 139 % of control [8 of 10 alive]. Besides, the survivor count is given as 0 of 10 (T/C endpoint: mean survival time, dose: 300.0 mg/kg/injection, schedule: Q01DX001 (ip), vehicle: carboxymethylcellulose (CMC)) and 0 of 10 under setting [1].

As for `CNNCc1ccc(C(=O)NC(N)=O)cc1`, the T/C reads like this: (T/C endpoint: mean survival time, dose: 100.0 mg/kg/injection, schedule: Q01DX Z (ip), vehicle: saline) 125 % of control; (T/C endpoint: mean survival time, dose: 148.0 mg/kg/injection, schedule: Q01DX Z (ip), vehicle: saline) 131 % of control; (T/C endpoint: mean survival time, dose: 222.0 mg/kg/injection, schedule: Q01DX Z (ip), vehicle: saline) 138 % of control; (T/C endpoint: mean survival time, dose: 333.0 mg/kg/injection, schedule: Q01DX Z (ip), vehicle: saline) 140 % of control; (T/C endpoint: mean survival time, dose: 500.0 mg/kg/injection, schedule: Q01DX Z (ip), vehicle: saline) 135 % of control [8 of 9 alive].

Regarding `COc1cc(NS(C)(=O)=O)ccc1Nc1c2cccc(C)c2nc2c(C)cccc12`, the T/C runs as follows: (T/C endpoint: mean survival time, dose: 12.5 mg/kg/injection, schedule: Q01DX009 (ip), vehicle: water) 126 % of control; (T/C endpoint: mean survival time, dose: 400.0 mg/kg/injection, schedule: Q01DX001 (ip), vehicle: saline) 126 % of control. The survivor count (T/C endpoint: mean survival time, dose: 50.0 mg/kg/injection, schedule: Q01DX009 (ip), vehicle: water) is listed as 7 of 10.

Consider `CC(=O)OC1CCC(NC(=O)N(CCCl)N=O)CC1` (stereo unspecified), for which, under “T/C endpoint: mean survival time, dose: 16.0 mg/kg/injection, schedule: Q01DX001 (ip), vehicle: other”, the T/C is 141 % of control.

Consider `COc1ccc2c(Nc3ccc(NS(C)(=O)=O)cc3)c3ccccc3nc2c1`, for which the survivor count reads like this: (T/C endpoint: mean survival time, dose: 25.0 mg/kg/injection, schedule: Q01DX009 (ip), vehicle: saline) 8 of 10; (T/C endpoint: mean survival time, dose: 50.0 mg/kg/injection, schedule: Q01DX009 (ip), vehicle: saline) 8 of 10.

On to `O=NN(CCCl)C(=O)NC(Cc1ccccc1)C(=O)O` (stereo unspecified), for which the survivor count (T/C endpoint: mean survival time, dose: 168.0 mg/kg/injection, schedule: Q01DX001 (ip), vehicle: gum acacia) is 9 of 10.

As to `Cc1cccc(C)c1NC(=O)N(CCCl)N=O`, the T/C (T/C endpoint: mean survival time, dose: 46.0 mg/kg/injection, schedule: Q01DX001 (ip), vehicle: carboxymethylcellulose (CMC)) was 131 % of control.

For `O=C1C(N2CC2)=C(N2CC2)C(=O)C(N2CC2)=C1N1CC1`, the T/C (T/C endpoint: mean survival time, dose: 0.08 mg/kg/injection, schedule: Q01DX009 (ip), vehicle: saline) is 127 % of control.

`OCCN1CCN(CC/C=C2/c3ccccc3Sc3ccc(C(F)(F)F)cc32)CC1`: the survivor count (T/C endpoint: mean survival time, dose: 50.0 mg/kg/injection, schedule: Q04DX003 (ip), vehicle: saline) is 6 of 6.

Consider `CC(=O)Nc1ccc2nc3ccc(NC(C)=O)cc3[n+](-c3ccccc3)c2c1`, for which the survivor count (T/C endpoint: mean survival time, dose: 375.0 mg/kg/injection, schedule: Q01DX Z (ip), vehicle: carboxymethylcellulose (CMC)) is given as 5 of 6; the survivor count under setting [2] is 3 of 6; the survivor count (T/C endpoint: mean survival time, dose: 750.0 mg/kg/injection, schedule: Q01DX Z (ip), vehicle: carboxymethylcellulose (CMC)) is on record as 6 of 6; the survivor count (T/C endpoint: mean survival time, dose: 1000.0 mg/kg/injection, schedule: Q01DX Z (ip), vehicle: carboxymethylcellulose (CMC)) is given as 5 of 6.

`O=C1C(Cl)=C(N2CC2)C(=O)C(Cl)=C1N1CC1`: the survivor count (T/C endpoint: mean survival time, dose: 20.0 mg/kg/injection, schedule: Q01DX009 (ip), vehicle: saline) was 2 of 6 and 3 of 6.

For the compound `O=NN(CCF)C(=O)NCCF`, for the setting “T/C endpoint: mean survival time, dose: 1.75 mg/kg/injection, schedule: Q01DX001 (ip), vehicle: saline”, the T/C is 132 % of control. Also, the survivor count is reported as 1 of 10 (T/C endpoint: mean survival time, dose: 12.0 mg/kg/injection, schedule: Q01DX001 (ip), vehicle: saline); 0 of 10 (T/C endpoint: mean survival time, dose: 18.0 mg/kg/injection, schedule: Q01DX001 (ip), vehicle: saline); 2 of 10 (T/C endpoint: mean survival time, dose: 28.0 mg/kg/injection, schedule: Q01DX001 (ip), vehicle: saline).

`CN1CCN(CCCN2c3ccccc3Sc3ccc(C(F)(F)F)cc32)CC1`: the survivor count (T/C endpoint: mean survival time, dose: 66.0 mg/kg/injection, schedule: Q04DX003 (ip), vehicle: water) was 5 of 8; the survivor count (T/C endpoint: mean survival time, dose: 100.0 mg/kg/injection, schedule: Q04DX003 (ip), vehicle: water) was 3 of 8; the survivor count (T/C endpoint: mean survival time, dose: 150.0 mg/kg/injection, schedule: Q04DX003 (ip), vehicle: water) is 0 of 8.

Regarding `O=NN(CCF)C(=O)NC1CCSCC1`, the T/C (T/C endpoint: mean survival time, dose: 7.0 mg/kg/injection, schedule: Q01DX001 (ip), vehicle: other) is 135 and 136 % of control. Moreover, the survivor count is recorded as 6 of 10 (T/C endpoint: mean survival time, dose: 62.0 mg/kg/injection, schedule: Q01DX001 (ip), vehicle: other); 5 of 10 (T/C endpoint: mean survival time, dose: 81.0 mg/kg/injection, schedule: Q01DX001 (ip), vehicle: other); 0 of 10 (T/C endpoint: mean survival time, dose: 121.0 mg/kg/injection, schedule: Q01DX001 (ip), vehicle: other).

As to `O=NN(CCF)C(=O)NC1CS(=O)(=O)CS(=O)(=O)C1`, the T/C runs as follows: (T/C endpoint: mean survival time, dose: 37.0 mg/kg/injection, schedule: Q01DX001 (ip), vehicle: other) 130 % of control; (T/C endpoint: mean survival time, dose: 56.0 mg/kg/injection, schedule: Q01DX001 (ip), vehicle: other) 127 % of control [9 of 10 alive].

Turning to `C[n+]1ccc(Nc2ccc(NC(=O)c3ccc(Nc4cc[n+](C)c5ccc(N)cc45)cc3N)cc2)cc1`, the survivor count (T/C endpoint: mean survival time, dose: 16.0 mg/kg/injection, schedule: Q01DX009 (ip), vehicle: water) is reported as 6 of 10.

In the case of `O=C(Nc1ccc(C2=NCCN2)cc1)c1ccc(C(=O)Nc2ccc(C3=NCCN3)cc2)cc1`, the survivor count under setting [2] was 1 of 6.

For `C=CCNC(=O)NCC=C`, the survivor count (T/C endpoint: mean survival time, dose: 400.0 mg/kg/injection, schedule: Q01DX009 (ip), vehicle: saline) is 3 of 8.
